Reference: the supplement of paper PMC11732987, “Enantioselective OTUD7B fragment discovery through chemoproteomics screening and high-throughput optimisation” (Communications Chemistry, 2025)
The other results are listed elsewhere or left out. The data scatter; read single values as rough.

By UniProt entry, the sequences of proteins in these tests, tags left out. Where a name states a change or a piece, a line headed by the entry shows the natural chain unless it says otherwise. Residues count along the entry.
UniProt Q8TEV9, 511-534: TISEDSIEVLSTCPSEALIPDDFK
UniProt Q15758, 466-488: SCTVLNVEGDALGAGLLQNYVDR
UniProt Q7KZF4: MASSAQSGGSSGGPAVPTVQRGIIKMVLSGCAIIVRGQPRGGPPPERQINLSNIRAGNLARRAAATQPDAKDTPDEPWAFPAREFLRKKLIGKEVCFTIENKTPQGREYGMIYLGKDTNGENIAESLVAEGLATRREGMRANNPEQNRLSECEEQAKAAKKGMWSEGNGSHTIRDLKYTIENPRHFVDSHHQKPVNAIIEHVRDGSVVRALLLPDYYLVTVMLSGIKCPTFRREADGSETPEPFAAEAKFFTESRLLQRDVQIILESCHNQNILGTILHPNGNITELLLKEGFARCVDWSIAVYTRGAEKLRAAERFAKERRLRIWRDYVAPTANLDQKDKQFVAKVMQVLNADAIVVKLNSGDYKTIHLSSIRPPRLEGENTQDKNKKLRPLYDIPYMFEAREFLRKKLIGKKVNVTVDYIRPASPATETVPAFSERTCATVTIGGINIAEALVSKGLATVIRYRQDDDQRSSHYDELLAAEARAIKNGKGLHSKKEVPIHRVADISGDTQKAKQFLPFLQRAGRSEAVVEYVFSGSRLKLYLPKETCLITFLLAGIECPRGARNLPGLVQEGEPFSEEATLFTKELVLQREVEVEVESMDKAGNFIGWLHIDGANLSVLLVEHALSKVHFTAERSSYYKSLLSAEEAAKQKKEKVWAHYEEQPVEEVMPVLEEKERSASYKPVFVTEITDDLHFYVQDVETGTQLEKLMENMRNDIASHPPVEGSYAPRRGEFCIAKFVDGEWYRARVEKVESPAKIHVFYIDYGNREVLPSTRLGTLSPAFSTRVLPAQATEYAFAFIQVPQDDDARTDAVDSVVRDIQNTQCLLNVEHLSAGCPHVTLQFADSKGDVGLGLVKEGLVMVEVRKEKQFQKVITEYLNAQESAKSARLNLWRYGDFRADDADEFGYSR
UniProt P12755: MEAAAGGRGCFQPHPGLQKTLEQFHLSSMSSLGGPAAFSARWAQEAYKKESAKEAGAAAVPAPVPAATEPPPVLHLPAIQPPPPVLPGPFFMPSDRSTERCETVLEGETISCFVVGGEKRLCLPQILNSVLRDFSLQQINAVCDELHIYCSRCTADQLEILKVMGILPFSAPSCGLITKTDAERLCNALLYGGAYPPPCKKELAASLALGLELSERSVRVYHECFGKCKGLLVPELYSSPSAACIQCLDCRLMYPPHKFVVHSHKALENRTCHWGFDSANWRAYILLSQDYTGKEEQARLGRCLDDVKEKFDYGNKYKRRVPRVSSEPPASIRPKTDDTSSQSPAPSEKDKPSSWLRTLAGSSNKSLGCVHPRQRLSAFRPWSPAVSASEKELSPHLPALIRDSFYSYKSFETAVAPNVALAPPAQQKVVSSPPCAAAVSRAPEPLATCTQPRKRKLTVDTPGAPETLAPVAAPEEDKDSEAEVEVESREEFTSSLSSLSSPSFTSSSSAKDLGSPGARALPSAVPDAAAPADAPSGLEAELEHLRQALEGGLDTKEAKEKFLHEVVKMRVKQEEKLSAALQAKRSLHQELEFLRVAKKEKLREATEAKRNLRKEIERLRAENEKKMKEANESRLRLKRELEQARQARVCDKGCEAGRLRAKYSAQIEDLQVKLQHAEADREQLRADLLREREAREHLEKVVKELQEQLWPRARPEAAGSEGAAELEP
UniProt Q9UBX3: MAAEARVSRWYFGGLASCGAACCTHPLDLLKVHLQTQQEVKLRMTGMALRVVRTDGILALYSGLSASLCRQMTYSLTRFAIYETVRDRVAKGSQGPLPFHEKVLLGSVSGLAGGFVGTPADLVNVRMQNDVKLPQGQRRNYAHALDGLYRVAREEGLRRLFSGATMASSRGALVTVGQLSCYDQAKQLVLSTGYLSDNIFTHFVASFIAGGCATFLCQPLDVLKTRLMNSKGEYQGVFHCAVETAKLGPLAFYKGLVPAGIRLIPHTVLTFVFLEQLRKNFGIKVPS
UniProt Q96R06, 798-825: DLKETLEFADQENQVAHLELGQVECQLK
UniProt P51532, whole entry, looked up: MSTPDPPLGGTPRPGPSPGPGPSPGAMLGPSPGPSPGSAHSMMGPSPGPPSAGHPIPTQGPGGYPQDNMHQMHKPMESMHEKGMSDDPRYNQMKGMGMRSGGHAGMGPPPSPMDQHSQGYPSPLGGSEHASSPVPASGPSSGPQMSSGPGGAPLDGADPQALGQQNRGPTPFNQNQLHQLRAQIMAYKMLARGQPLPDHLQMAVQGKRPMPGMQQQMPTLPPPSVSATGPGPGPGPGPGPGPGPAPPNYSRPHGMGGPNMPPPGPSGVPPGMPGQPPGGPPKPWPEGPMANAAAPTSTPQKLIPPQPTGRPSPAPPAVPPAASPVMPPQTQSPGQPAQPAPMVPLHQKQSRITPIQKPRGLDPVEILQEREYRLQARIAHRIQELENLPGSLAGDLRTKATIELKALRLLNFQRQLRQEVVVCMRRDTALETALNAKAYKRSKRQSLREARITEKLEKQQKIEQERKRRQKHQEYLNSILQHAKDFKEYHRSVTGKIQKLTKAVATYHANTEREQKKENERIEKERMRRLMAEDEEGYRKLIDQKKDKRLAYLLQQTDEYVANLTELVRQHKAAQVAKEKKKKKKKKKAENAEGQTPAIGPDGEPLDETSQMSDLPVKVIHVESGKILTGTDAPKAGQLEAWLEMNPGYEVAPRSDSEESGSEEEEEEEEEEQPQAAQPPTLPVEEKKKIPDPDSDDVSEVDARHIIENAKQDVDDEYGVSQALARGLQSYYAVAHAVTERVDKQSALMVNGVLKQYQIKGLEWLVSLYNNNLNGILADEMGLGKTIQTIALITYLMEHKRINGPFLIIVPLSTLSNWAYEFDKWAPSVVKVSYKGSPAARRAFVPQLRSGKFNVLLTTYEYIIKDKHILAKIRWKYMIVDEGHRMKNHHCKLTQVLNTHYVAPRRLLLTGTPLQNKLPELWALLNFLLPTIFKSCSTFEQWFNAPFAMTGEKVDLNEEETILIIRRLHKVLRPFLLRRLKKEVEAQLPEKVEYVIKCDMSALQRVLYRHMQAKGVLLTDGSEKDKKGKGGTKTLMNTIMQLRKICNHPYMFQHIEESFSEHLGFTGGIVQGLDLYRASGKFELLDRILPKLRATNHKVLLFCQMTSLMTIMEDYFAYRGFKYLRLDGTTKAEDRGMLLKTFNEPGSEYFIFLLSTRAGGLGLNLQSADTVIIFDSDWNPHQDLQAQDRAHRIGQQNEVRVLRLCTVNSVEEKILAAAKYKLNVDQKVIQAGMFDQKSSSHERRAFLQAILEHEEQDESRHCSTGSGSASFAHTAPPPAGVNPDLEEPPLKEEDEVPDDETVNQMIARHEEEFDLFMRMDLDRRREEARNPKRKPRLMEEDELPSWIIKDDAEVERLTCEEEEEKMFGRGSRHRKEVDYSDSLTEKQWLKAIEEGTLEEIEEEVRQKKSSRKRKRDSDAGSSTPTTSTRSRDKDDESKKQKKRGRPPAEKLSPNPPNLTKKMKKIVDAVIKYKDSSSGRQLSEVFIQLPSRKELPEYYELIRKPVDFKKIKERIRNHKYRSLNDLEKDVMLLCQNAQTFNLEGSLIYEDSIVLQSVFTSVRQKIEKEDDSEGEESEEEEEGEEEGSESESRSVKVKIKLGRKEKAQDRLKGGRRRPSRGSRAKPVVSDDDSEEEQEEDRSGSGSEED
UniProt P53814: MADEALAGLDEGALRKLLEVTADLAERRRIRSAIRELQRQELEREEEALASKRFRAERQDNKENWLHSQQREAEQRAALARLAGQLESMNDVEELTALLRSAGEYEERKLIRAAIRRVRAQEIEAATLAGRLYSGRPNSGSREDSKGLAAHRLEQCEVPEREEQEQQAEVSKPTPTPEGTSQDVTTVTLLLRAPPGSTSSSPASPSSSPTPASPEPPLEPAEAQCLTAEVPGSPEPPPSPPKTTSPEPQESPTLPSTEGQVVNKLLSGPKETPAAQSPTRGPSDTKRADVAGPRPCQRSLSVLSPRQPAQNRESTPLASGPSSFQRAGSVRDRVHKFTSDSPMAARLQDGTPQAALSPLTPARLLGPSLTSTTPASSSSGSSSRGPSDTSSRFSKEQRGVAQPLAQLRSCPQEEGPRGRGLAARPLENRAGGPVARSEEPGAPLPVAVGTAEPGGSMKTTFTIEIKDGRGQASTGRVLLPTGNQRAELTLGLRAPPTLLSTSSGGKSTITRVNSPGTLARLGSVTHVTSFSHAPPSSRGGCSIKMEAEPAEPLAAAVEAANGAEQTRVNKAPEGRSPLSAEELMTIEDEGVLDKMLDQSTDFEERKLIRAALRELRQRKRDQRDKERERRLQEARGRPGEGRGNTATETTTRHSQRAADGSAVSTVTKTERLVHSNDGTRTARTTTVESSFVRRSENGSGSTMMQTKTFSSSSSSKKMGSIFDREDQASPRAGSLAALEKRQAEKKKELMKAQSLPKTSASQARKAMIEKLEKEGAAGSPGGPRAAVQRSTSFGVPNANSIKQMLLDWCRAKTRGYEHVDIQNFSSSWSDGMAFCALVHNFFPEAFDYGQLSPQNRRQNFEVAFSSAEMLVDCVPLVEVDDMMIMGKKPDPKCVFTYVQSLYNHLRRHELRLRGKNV
UniProt Q15599, 241-274: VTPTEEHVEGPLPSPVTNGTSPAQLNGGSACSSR
UniProt P57768: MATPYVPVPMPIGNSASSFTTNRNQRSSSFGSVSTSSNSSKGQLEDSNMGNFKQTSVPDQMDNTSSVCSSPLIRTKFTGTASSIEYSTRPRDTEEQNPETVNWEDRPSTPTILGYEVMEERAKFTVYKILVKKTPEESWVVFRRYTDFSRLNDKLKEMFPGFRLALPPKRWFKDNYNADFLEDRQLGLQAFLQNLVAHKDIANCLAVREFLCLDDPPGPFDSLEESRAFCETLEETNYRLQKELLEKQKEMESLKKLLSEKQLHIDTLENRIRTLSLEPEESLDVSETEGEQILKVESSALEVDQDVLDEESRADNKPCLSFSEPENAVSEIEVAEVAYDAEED
UniProt Q5SQN1: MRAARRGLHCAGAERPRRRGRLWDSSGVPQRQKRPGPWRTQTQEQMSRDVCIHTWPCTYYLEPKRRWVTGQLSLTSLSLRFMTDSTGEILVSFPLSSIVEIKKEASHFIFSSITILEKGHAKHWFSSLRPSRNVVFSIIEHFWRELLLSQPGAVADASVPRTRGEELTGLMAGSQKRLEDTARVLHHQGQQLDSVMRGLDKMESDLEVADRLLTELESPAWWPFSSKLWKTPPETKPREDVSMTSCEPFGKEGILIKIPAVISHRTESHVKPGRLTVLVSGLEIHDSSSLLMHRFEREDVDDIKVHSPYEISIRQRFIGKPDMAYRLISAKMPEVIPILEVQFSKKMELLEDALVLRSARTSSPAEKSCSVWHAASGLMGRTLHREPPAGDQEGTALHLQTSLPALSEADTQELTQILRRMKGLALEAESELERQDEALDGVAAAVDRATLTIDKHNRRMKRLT
UniProt Q8ND83, 310-338: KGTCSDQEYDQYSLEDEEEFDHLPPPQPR
UniProt Q9H4L7, 88-113: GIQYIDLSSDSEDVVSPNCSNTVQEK
UniProt P12236: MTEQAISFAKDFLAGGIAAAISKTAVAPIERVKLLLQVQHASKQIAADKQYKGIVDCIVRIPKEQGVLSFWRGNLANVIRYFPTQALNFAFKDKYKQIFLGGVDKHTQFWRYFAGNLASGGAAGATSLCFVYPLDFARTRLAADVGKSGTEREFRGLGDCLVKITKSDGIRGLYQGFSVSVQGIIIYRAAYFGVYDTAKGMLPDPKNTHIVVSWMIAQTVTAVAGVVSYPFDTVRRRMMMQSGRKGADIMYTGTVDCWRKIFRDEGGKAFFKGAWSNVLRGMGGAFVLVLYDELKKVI
UniProt Q8TAD8: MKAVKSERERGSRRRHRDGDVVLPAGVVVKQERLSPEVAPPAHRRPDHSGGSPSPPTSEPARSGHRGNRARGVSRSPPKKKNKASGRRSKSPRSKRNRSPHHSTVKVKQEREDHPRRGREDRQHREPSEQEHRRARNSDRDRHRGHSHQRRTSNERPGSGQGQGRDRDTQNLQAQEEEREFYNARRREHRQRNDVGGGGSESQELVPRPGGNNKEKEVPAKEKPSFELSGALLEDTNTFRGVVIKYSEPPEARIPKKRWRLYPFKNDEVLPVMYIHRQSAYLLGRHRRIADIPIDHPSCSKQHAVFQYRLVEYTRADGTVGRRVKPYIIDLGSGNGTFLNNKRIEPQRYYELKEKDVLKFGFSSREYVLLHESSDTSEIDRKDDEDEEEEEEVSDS
UniProt P09486: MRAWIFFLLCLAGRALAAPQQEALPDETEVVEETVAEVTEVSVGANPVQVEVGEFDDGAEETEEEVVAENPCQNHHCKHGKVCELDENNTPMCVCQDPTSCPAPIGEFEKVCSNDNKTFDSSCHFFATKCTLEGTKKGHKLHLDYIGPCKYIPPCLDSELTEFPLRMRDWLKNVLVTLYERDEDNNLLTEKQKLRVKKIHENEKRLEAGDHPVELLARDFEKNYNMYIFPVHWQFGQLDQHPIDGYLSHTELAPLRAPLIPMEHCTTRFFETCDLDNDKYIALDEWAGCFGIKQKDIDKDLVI

Tests used:
[1] = compound: ClCC(=O)N[C@@H]1CCCc2ccccc12; test: log2 mean competition ratio of IA-DTB cysteine labelling (DMSO/compound) (log2 ratio); higher = stronger cysteine engagement by compound; conditions: treatment time: 4 h, cell line lysate: HEK293T
Experimental: (§1)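 IA-DTB competitive cysteine chemoproteomics in HEK293T RIPA lysate. Lysates were treated with compound 29 or 30 at 50 or 200 µM for 4 h, then IA-DTB (500 µM, 1 h), trypsin-digested, NeutrAvidin-enriched and analysed by diaPASEF. Competition ratio = intensity DMSO / intensity compound (n=4 treated, n=64 DMSO); binding: mean log2 CR ≥ 1 and p ≤ 0.05 plus QC filters. Target is the cysteine site.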

[2] = compound: ClCC(=O)N[C@H]1CCCc2ccccc12; test: as above; conditions: treatment time: 4 h, cell line lysate: HEK293T
Experimental: as §1

Row | Target | log2 mean competition ratio ([1]; 50 µM) | log2 mean competition ratio ([1]; 200 µM) | log2 mean competition ratio ([2]; 50 µM) | log2 mean competition ratio ([2]; 200 µM)
1 | SLC25A19 C222 (UniProt Q9HC21) | -0.196 | -0.0267 | -0.0161 | 0.09
2 | SPAG1 C657 (UniProt Q07617) | 0.0444 | -0.124 | 0.461 | -0.0741
3 | SOS1 C167 (UniProt Q07889) | -0.111 | 0.127 | -0.341 | -0.104
4 | SMAD5 C378 (UniProt Q99717) | -0.0739 | -0.169 | 0.334 | -0.0364
5 | SNTA1 C400 (UniProt Q13424) | 0.0872 | 0.142 | 0.141 | 0.375
6 | SLC25A25 C322 (UniProt Q6KCM7) | 0.355 | 0.126 | -0.27 | 0.0921
7 | SLMAP C286 (UniProt Q14BN4) | -0.246 | -0.0357 | -0.395 | -0.036
8 | SMCR8 C523 (UniProt Q8TEV9) | -0.374 | -0.225 | -0.557 | 0.00532
9 | SLC1A5 C467 (UniProt Q15758) | -0.126 | 0.248 | -0.178 | 0.356
10 | SND1 C152 (UniProt Q7KZF4) | 0.0195 | -0.0957 | 0.0355 | -0.0266
11 | SKI C449 (UniProt P12755) | -0.24 | 0.0889 | -0.465 | 0.0397
12 | SLC25A10 C240 (UniProt Q9UBX3) | 0.162 | 0.117 | 0.113 | -0.00391
13 | SPAG5 C177 (UniProt Q96R06) | 0.0521 | -0.0929 | 0.0483 | 0.0108
14 | SMARCA4 C423 (UniProt P51532) | -0.137 | -0.251 | 0.494 | -0.166
15 | SMTN C410 (UniProt P53814) | -0.13 | -0.0212 | -0.125 | 0.017
16 | SMAD2 C161 (UniProt Q15796) | 0.663 | 0.0965 | 0.297 | -0.0205
17 | SMYD4 C380 (UniProt Q8IYR2) | -0.0846 | 0.125 | -0.239 | 0.0436
18 | SLC9A3R2 C271 (UniProt Q15599) | -0.23 | 0.138 | -0.0789 | 0.211
19 | SND1 C96 (UniProt Q7KZF4) | -0.0773 | -0.153 | -0.146 | -0.131
20 | SNX16 C230 (UniProt P57768) | -0.0371 | -0.142 | 0.0502 | 0.0873
21 | SLC25A52;SLC25A51 C166;(C166) | -0.173 | 0.192 | 0.00374 | 0.0177
22 | SLC19A1 C246 (UniProt P41440) | 0.149 | 0.199 | 0.455 | 0.431
23 | SLC1A1 C343 | 0.0248 | 0.0287 | -0.114 | 0.151
24 | SNAP47 C246 (UniProt Q5SQN1) | -0.126 | -0.0588 | 0.23 | -0.00801

Record cards, from the list above. Order of values: log2 mean competition ratio ([1]; 50 µM) | log2 mean competition ratio ([1]; 200 µM) | log2 mean competition ratio ([2]; 50 µM) | log2 mean competition ratio ([2]; 200 µM)
SPAG1 C657 (UniProt Q07617) is listed with 0.0444 | -0.124 | 0.461 | -0.0741
SND1 C96 (UniProt Q7KZF4) is listed with -0.0773 | -0.153 | -0.146 | -0.131

More results

Row | Target | log2 mean competition ratio ([1]; 50 µM) | log2 mean competition ratio ([1]; 200 µM) | log2 mean competition ratio ([2]; 50 µM) | log2 mean competition ratio ([2]; 200 µM)
25 | SNAP23 C112 (UniProt O00161) | -0.193 | 0.149 | 0.114 | 0.355
26 | SPAG5 C822 (UniProt Q96R06) | -0.329 | 0.09 | 0.00652 | 0.118
27 | SOGA1 C250 (UniProt O94964) | -0.119 | -0.136 | 0.205 | 0.137
28 | SLC6A11 C612 | -0.158 | 0.24 | -0.145 | 0.228
29 | SLC27A3 C364 |  |  | -0.16 | -0.324
30 | SMG5 C174 (UniProt Q9UPR3) |  |  | -0.229 | 0.0423
31 | SLC43A1 C384 (UniProt O75387) |  |  | -0.369 | -0.0391
32 | SLAIN1 C313 (UniProt Q8ND83) |  |  | 0.0806 | -0.152
33 | SMG1 C1448 (UniProt Q96Q15) | 0.0131 | 0.191 | -0.396 | -0.204
34 | SMARCAD1 C445 (UniProt Q9H4L7) | -0.199 | 0.258 | -0.359 | 0.0301
35 | SMCHD1 C1018 (UniProt A6NHR9) | -0.341 | -0.246 | 0.0333 | -0.127
36 | SLC25A6 C160 (UniProt P12236) |  |  | 0.354 | 0.188
37 | SORT1 C86 (UniProt Q99523) | -0.0667 | 0.377 | -0.159 | 0.466
38 | SLC6A11 C28 |  |  | -0.384 | 0.00197
39 | SKP2 C423 (UniProt Q13309) |  |  | 0.111 | -0.0177
40 | SMARCAD1 C106 (UniProt Q9H4L7) |  |  | 0.591 | -0.38
41 | SLC27A2 C414 (UniProt O14975) |  |  | -0.335 | -0.0406
42 | SNIP1 C299 (UniProt Q8TAD8) |  |  | 0.0333 | -0.0539
43 | SLBP C15 (UniProt Q14493) |  |  | -0.0392 | 0.313
44 | SMCHD1 C897 (UniProt A6NHR9) |  |  | -0.177 | -0.0214
45 | SNX13 C62 (UniProt Q9Y5W8) |  |  | -0.699 | -0.162
46 | SPARC C265 (UniProt P09486) |  | 0.499 | 0.223 | 
47 | SMAD4 C391 (UniProt Q13485) |  |  |  | -0.0701
48 | SLC27A2 C301 (UniProt O14975) |  |  | -0.374 | 0.0721
